Data: publication PMC6314972
No constants are given. Whether binding was seen depends on the method and setting. In cells and extracts the contact can be indirect. Some entries that bind do so weakly or less than the wild type.

By UniProt entry, the sequences of proteins in these tests, tags left out.
UniProt Q9UBN7: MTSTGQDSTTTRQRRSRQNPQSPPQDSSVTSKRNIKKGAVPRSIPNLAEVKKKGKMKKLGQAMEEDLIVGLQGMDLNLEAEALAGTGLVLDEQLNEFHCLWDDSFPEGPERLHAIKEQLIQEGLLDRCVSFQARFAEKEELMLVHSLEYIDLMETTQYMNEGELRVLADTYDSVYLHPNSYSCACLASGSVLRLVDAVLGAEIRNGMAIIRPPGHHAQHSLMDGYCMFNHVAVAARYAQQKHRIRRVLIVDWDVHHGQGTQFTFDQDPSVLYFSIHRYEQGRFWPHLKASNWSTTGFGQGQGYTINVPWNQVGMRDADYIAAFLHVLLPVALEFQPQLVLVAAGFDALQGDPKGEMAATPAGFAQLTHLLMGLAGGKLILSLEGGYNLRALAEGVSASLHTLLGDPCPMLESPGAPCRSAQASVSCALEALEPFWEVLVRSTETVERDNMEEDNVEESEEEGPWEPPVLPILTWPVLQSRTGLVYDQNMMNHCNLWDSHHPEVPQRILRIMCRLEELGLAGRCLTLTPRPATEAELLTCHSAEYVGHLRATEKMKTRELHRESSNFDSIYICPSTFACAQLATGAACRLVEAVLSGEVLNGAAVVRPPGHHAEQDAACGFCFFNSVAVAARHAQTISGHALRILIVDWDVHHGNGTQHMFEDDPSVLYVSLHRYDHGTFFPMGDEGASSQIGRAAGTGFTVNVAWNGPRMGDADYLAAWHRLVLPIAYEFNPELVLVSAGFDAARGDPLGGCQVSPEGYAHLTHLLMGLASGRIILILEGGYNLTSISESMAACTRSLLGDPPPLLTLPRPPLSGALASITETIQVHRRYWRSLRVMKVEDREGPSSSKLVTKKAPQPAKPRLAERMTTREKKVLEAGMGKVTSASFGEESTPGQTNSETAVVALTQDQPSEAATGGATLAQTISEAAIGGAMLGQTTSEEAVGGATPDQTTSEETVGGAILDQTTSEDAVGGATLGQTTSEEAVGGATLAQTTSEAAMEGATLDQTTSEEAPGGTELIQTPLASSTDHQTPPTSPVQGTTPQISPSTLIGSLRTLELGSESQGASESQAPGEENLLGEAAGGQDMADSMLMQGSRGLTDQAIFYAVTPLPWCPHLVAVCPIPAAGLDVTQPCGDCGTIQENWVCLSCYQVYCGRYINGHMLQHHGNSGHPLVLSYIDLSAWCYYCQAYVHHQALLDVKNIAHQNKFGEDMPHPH

Target: T1, myocardin-related transcription factor A (MRTF-A) (human (endogenous in HEK293)) (UniProt Q969V6)
T1 sequence: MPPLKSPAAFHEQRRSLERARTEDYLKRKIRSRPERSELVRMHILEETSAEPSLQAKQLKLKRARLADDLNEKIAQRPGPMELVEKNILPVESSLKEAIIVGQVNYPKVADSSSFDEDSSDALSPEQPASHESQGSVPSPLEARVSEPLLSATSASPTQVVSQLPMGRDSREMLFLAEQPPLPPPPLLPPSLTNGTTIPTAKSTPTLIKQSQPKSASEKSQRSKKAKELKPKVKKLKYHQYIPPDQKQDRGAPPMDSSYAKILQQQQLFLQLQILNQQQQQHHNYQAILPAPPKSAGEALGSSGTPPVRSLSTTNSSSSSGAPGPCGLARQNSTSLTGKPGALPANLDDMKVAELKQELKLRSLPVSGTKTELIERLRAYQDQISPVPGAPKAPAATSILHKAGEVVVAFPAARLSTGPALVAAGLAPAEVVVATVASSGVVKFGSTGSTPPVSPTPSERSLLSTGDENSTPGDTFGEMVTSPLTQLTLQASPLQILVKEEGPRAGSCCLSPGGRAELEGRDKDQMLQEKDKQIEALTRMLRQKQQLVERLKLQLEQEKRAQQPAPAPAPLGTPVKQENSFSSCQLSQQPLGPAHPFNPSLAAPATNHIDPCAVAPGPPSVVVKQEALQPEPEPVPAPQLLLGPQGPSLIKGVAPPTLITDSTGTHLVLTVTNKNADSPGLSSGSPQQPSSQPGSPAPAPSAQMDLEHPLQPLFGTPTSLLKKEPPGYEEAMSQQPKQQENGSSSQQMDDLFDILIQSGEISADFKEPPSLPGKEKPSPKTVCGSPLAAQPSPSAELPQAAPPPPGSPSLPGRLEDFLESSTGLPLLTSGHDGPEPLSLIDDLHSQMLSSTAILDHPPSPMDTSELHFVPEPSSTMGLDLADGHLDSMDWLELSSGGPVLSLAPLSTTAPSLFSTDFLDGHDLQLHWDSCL
Test: co-IP; lysate of HEK293 cells overexpressing HDAC6; incubated overnight at 4°C with 1 to 2 μg MRTF-A antibody or IgG control; Protein A/G agarose beads; Western blot for HDAC6 and MRTF-A

In the case of “histone deacetylase 6 (HDAC6), FLAG-tagged (from UniProt Q9UBN7 1-1215) (enzyme)”, the binding is reported as “binds”.
